Publication PMC9028075
No constants are given. Whether binding was seen depends on the method and setting. In cells and extracts the contact can be indirect. Some results given as binding are weak or reduced against the parent protein; the word gives no strength.

Sequences of proteins named here, by UniProt entry; tags and fusion partners are left off. Residues count along the entry.
UniProt P02768, residues 25-609: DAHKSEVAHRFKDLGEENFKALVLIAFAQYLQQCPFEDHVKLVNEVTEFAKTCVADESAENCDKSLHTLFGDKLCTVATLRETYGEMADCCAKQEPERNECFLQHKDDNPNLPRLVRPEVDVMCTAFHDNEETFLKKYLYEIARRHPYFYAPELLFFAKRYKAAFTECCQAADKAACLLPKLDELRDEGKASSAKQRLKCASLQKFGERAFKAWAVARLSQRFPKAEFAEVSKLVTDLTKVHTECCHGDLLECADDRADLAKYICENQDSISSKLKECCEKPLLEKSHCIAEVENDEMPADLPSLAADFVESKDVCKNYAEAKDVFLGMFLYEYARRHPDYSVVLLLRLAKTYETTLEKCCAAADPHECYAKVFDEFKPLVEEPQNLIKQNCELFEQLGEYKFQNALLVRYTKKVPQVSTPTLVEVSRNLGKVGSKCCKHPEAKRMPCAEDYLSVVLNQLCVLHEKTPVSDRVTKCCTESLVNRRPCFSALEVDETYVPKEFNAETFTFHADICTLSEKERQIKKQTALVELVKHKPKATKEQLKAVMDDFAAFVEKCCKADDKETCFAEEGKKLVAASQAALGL
UniProt P02649, residues 19-317: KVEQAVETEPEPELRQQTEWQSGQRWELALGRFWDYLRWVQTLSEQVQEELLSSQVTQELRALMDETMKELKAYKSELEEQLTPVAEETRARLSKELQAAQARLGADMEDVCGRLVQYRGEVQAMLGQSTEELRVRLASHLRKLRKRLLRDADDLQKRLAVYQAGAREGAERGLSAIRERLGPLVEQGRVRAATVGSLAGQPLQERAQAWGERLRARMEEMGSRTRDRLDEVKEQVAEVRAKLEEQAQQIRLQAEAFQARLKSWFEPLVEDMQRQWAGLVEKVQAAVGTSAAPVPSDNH
UniProt P02787, residues 20-698: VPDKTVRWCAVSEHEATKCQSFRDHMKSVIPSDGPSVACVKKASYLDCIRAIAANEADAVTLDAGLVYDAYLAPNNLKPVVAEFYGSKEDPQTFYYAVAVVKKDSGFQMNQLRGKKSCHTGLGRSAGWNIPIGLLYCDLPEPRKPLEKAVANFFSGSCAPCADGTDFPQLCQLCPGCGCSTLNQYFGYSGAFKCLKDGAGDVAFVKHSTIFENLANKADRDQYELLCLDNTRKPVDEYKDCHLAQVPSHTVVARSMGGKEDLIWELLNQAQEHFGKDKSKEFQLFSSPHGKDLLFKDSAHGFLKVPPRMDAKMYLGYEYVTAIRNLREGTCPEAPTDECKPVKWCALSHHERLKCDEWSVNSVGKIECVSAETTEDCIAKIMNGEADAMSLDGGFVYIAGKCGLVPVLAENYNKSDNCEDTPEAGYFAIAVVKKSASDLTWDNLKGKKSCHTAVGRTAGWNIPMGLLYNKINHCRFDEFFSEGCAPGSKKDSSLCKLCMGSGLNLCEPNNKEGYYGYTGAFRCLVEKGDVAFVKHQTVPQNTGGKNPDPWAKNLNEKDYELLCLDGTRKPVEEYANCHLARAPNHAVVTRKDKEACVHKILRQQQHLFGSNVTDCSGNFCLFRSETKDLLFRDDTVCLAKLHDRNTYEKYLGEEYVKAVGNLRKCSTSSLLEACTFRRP

biological target: T1, GBVA10-9scr, scrambled negative control peptide for GBVA10-9; experiment: pull-down; biotinylated peptides (2 ug) on streptavidin agarose resin (10 uL), 30 min at 4 °C with 10% human serum (25 uL) and PBS (200 uL); beads spun down, washed once with cold PBS; bound proteins detected by immunoblot; only the target purified
T1 sequence (peptide, biotin on the C-terminal lysine, K(Biotin), as printed in Table 1): LTCLKGRLVRWRLRTYFLK

Substance | binding
albumin (from UniProt P02768 25-609) | binds
apolipoprotein E (from UniProt P02649 19-317) | binds
transferrin (from UniProt P02787 20-698) | binds
